Reference: paper PMC6796953
These are yes or no findings as the source states them, for the method shown. Binding seen in cells or lysates may run through a third protein. Binding can be weak; no strength is given.

Molecular target: GFP-zRbm14b (zebrafish)
Test: co-IP; GFP, GFP-mRbm14 or GFP-zRbm14b expressed in HeLa cells, immunoprecipitated with anti-GFP resin; immunoblot for endogenous hnRNP proteins

B1: hnRNPL (human) (protein, UniProt P14866 1-589)
chain: MSRRLLPRAEKRRRRLEQRQQPDEQRRRSGAMVKMAAAGGGGGGGRYYGGGSEGGRAPKRLKTDNAGDQHGGGGGGGGGAGAAGGGGGGENYDDPHKTPASPVVHIRGLIDGVVEADLVEALQEFGPISYVVVMPKKRQALVEFEDVLGACNAVNYAADNQIYIAGHPAFVNYSTSQKISRPGDSDDSRSVNSVLLFTILNPIYSITTDVLYTICNPCGPVQRIVIFRKNGVQAMVEFDSVQSAQRAKASLNGADIYSGCCTLKIEYAKPTRLNVFKNDQDTWDYTNPNLSGQGDPGSNPNKRQRQPPLLGDHPAEYGGPHGGYHSHYHDEGYGPPPPHYEGRRMGPPVGGHRRGPSRYGPQYGHPPPPPPPPEYGPHADSPVLMVYGLDQSKMNCDRVFNVFCLYGNVEKVKFMKSKPGAAMVEMADGYAVDRAITHLNNNFMFGQKLNVCVSKQPAIMPGQSYGLEDGSCSYKDFSESRNNRFSTPEQAAKNRIQHPSNVLHFFNAPLEVTEENFFEICDELGVKRPSSVKVFSGKSERSSSGLLEWESKSDALETLGFLNHYQMKNPNGPYPYTLKLCFSTAQHAS
binding: binds
